Results as given in PubChem BioAssay AID493014 (National Center for Advancing Translational Sciences (NCATS), 2011).
This is one part of the list. These are further read-outs of the screen, such as a control signal, another cell line or another target. No call is given for them. Compounds called inactive in the main read-out are mostly missing here. The note in brackets gives the kind of curve behind each potency; many fits are weak.

Test: qHTS Assay to Find Inhibitors of Chronic Active B-Cell Receptor Signaling
Details: ABC-DLBCL IkBa-CBG/CBR reporter, luminescence ratio (green luciferase fused to IkBa over red control in TMD8 lymphoma cells), 4 h
How it was run: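 Compounds up to 46 uM were incubated four hours with TMD8 cells whose green CBG68 luciferase is fused to IkappaBalpha; red CBR luminescence normalised the signal, and concentration-effect curves were fitted to fusion, red and ratio data.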

[1] = measured here: CBR red luminescence, cell number
[2] = measured here: IkBa-CBG green luminescence

Row | SMILES | AC50 [1] | AC50 [2]
1 | COc1ccc(/C=N/NC(=S)Nc2ccccc2)cc1COc1ccc(F)cc1F | 7.31 µM [rising, partial curve] | 
2 | COc1cc(NS(=O)(=O)c2ccc3ccccc3c2)c2ncccc2c1 | 0.2 µM [rising, full curve, poor fit] | 
3 | CCOC(=O)C1=C(C)N(C)C(=S)NC1c1ccc(Cl)cc1 (configuration not stated) | 0.291 µM [rising, partial curve, poor fit] | 
4 | COc1cccc(C2CC(c3cccs3)=NN2C(=O)CSC2=NCCS2)c1OC (configuration not stated) | 22.4 µM [falling, single point] | 
5 | C/C=C/C=C\C(=O)Nc1cccc(C2=NOC3(C2)C[C@H](C(N)=O)N(C(=O)CC#N)C3)c1 (some centres not stated) | 11.2 µM [falling, partial curve, poor fit] | 
6 | O=C(NC(=S)Nc1ccccc1Cl)c1cncc(C#Cc2ccccc2)c1 | 3.16 µM [falling, full curve, poor fit] | 
7 | COc1cc(SC)ccc1C(=O)N1CC(C)OC(C)C1 (configuration not stated) | 3.98 µM [rising, full curve, poor fit] | 
8 | COc1cccc(CN(Cc2ccco2)S(=O)(=O)c2ccc(S(=O)(=O)NCc3ccccc3)cc2)c1OC | 0.184 µM [rising, full curve, poor fit] | 
9 | COc1ccc(C(=O)Nc2ccc3nc(C)sc3c2)cc1OC | 10 µM [falling, partial curve] | 
10 | COc1ccccc1NCC(=O)N/N=C/c1cccnc1 | 4.47 µM [falling, single point] | 
11 | CC(=O)NC1C(=O)N(CCc2ccccc2)c2ccc(Br)cc21 (configuration not stated) | 29.1 µM [falling, single point] | 
12 | COc1ccc(C2CC(C)=C(C#N)S(=O)(=O)C2C#N)cc1 (configuration not stated) | 2 µM [rising, partial curve, poor fit] | 
13 | Cc1[nH]c2ccccc2c1C(c1ccncc1)N1CCN(c2ccccn2)CC1 (configuration not stated) | 10 µM [falling, partial curve, poor fit] | 
14 | C=CCN=C1SC(CC)C(=O)N1S(=O)(=O)c1ccc(C)cc1 (configuration not stated) | 0.116 µM [rising, full curve, poor fit] | 
15 | CC(=O)Nc1ccc(NC(=O)CCCSc2nc3ccccc3[nH]2)cc1 | 0.1 µM [rising, full curve, poor fit] | 
16 | COc1c(Cl)cc(Cl)cc1C(=O)n1nc(C)cc1C | 20.6 µM [rising, partial curve] | 
17 | O=C1CSC2(CCCCC2)N1CCO | 35.5 µM [rising, single point] | 
18 | O=C(O)C(Cc1ccccc1)N1C(=O)/C(=C/c2cccc3ccccc23)SC1=S (configuration not stated) | 20.6 µM [rising, single point] | 
19 | COCCn1c(-c2ccccc2)nc2oc3ccccc3c(=O)c2c1=O | 35.5 µM [falling, single point] | 
20 | CC(=O)c1sc(N/N=C\c2cccc(Br)c2)nc1C | 0.92 µM [rising, full curve] | 
21 | CN(C)c1ccc(/C=C/c2ccc3c4ccccc4ccc3[n+]2-c2ccccc2)cc1 | 25.1 µM [falling, single point] | 14.1 µM [rising, partial curve, poor fit]

Row | SMILES | AC50 [1] | AC50 [2]
22 | CC(C(=O)O)c1n[nH]c(=O)c2ccccc12 (configuration not stated) | 6.51 µM [rising, single point] | 
23 | COc1ccc(C(=O)N2CCN(Cc3cn[nH]c3-c3ccc(OC)cc3F)CC2)cc1 | 6.31 µM [rising, single point] | 
24 | CC1Cc2ccccc2N1C(=O)CSc1nc2ccccc2s1 (configuration not stated) | 1.16 µM [rising, full curve, poor fit] | 
25 | CCOCCCNC(=O)c1ccc2c(c1)N=C(CC)c1cc(Br)ccc1S2 | 0.501 µM [rising, full curve] | 0.355 µM [falling, full curve]
26 | COc1cc(/C=N/NC(=O)c2ccc(O)cc2)ccc1Oc1ccc([N+](=O)[O-])cn1 | 0.184 µM [falling, full curve] | 
27 | COc1ccccc1/C=C/C(=O)NC(=S)N(C)C1CCCCC1 | 35.5 µM [falling, single point] | 
28 | COC(=O)c1ccc(CN2C(=O)C3CCCCC3C2=O)o1 (configuration not stated) | 0.316 µM [falling, full curve, poor fit] | 
29 | COc1cc2c(cc1OC)CN(C1CCC(C)CC1)CC2 (configuration not stated) | 6.31 µM [rising, partial curve, poor fit] | 
30 | C/C(=N\N=C\c1ccc(N(C)C)cc1)c1cccc([N+](=O)[O-])c1 | 25.9 µM [rising, partial curve, poor fit] | 
31 | CC(C)CN(C(=O)CN1CCN(c2ccc([N+](=O)[O-])cc2)CC1)c1c(N)n(CC(C)C)c(=O)[nH]c1=O | 3.98 µM [rising, partial curve, poor fit] | 
32 | Cc1ccccc1-c1nc(CS(=O)CC(=O)NCc2ccc3c(c2)OCO3)c(C)o1 (configuration not stated) | 22.4 µM [falling, single point] | 
33 | Cc1cccc(NC(=O)c2ccc(NC(=O)c3ccccc3Br)cc2)c1 | 8.91 µM [falling, partial curve, poor fit] | 
34 | CC1Sc2ccc(S(=O)(=O)N3CCC(C(=O)NCc4ccc(Cl)cc4)CC3)cc2NC1=O (configuration not stated) | 20 µM [falling, partial curve, poor fit] | 
35 | COC(=O)c1[nH]c2ccccc2c1Sc1ccccc1 | 31.6 µM [rising, single point] | 
36 | CCCOc1ccc(N2C(=O)CC(N(CCc3ccc(OC)c(OC)c3)C(=S)Nc3ccccc3)C2=O)cc1 (configuration not stated) | 6.51 µM [falling, partial curve] | 
37 | O=C(CCN1C(=O)COc2ccccc21)N1CCCCC1 | 29.1 µM [rising, single point] | 
38 | N#CC1=C(N)Oc2c(O)cc3ccccc3c2C1c1ccsc1 (configuration not stated) | 23.1 µM [falling, partial curve, poor fit] | 25.9 µM [rising, single point]
39 | COCC(=O)Nc1ccc(C)c(Cl)c1 | 4.11 µM [rising, full curve, poor fit] | 
40 | CCn1c2ccccc2c2cc(C3C(C#N)=C(N)Oc4n[nH]c(COC)c43)ccc21 (configuration not stated) | 29.1 µM [rising, partial curve, poor fit] | 13 µM [falling, partial curve]
41 | Cc1ccc(N/N=C(\C#N)C(=N)N2CCCCCC2)cc1 | 35.5 µM [falling, partial curve, poor fit] | 
42 | CCN(CC)C(=O)Oc1ccc2ccccc2c1Cl | 9.2 µM [rising, partial curve, poor fit] | 

Rewritten as a markdown table: 4 of the compounds above.

| Row | SMILES | AC50 [1] | AC50 [2] |
| --- | --- | --- | --- |
| 22 | CC(C(=O)O)c1n[nH]c(=O)c2ccccc12 (configuration not stated) | 6.51 µM [rising, single point] |  |
| 23 | COc1ccc(C(=O)N2CCN(Cc3cn[nH]c3-c3ccc(OC)cc3F)CC2)cc1 | 6.31 µM [rising, single point] |  |
| 24 | CC1Cc2ccccc2N1C(=O)CSc1nc2ccccc2s1 (configuration not stated) | 1.16 µM [rising, full curve, poor fit] |  |
| 25 | CCOCCCNC(=O)c1ccc2c(c1)N=C(CC)c1cc(Br)ccc1S2 | 0.501 µM [rising, full curve] | 0.355 µM [falling, full curve] |

The results go on.

Row | SMILES | AC50 [1] | AC50 [2]
43 | N#Cc1cc(Oc2cccc3cccnc23)c(-n2nnc3ccccc32)cc1C#N |  | 5.62 µM [falling, single point]
44 | Cc1nnc(N/N=C/c2cccc(OCc3ccc(Cl)c(Cl)c3)c2)n1N | 29.1 µM [falling, single point] | 
45 | O=C(O)/C=C/S(=O)(=O)c1ccc2ccccc2c1 | 15.8 µM [falling, single point] | 
46 | COc1ccccc1NC(=O)c1cc(N2C(=O)C3C4CCC(C4)C3C2=O)ccc1Cl (configuration not stated) | 10 µM [falling, partial curve] | 
47 | CCC(=O)N1CC2(CC(c3cccc(NC(=O)COc4ccc(Cl)cc4)c3)=NO2)C[C@@H]1C(N)=O (some centres not stated) | 22.4 µM [falling, single point] | 
48 | C[C@H](CO)N1C[C@H](C)[C@@H](CN(C)S(=O)(=O)c2cccs2)Oc2c(NC(=O)Nc3ccc4c(c3)OCO4)cccc2C1=O | 16.4 µM [falling, single point] | 
49 | CCOC(=O)N1CCN(c2ncnc3scc(-c4ccc(Cl)cc4)c23)CC1 | 2.24 µM [rising, partial curve] | 
50 | CNC(=S)N(C1=NCC(c2ccc([N+](=O)[O-])cc2)S1)c1ccccc1 (configuration not stated) | 35.5 µM [falling, single point] | 
51 | CCCc1nnc(NC(=O)CCC(=O)N2CCN(CCn3c(C)ccc3C)CC2)s1 | 11.2 µM [rising, single point] | 
52 | COc1ccccc1NC(=O)Nc1ccc(N2CCOCC2)cc1 | 3.16 µM [falling, full curve] | 
53 | Cc1ccc(OCCCC(=O)N2CCOCC2)c(C)c1 | 7.31 µM [rising, partial curve, poor fit] | 
54 | O=C(Nc1ccc(Br)cn1)c1cccc(S(=O)(=O)N2CCCC2)c1 | 23.1 µM [falling, single point] | 
55 | Cc1ncc(/C=C2\C(=O)Nc3ccccc32)[nH]1 | 12.6 µM [falling, partial curve, poor fit] | 
56 | Cc1c(CCC(=O)O)c(=O)oc2cc(OCc3cccc(Cl)c3)ccc12 | 6.31 µM [falling, single point] | 
57 | Cc1ccc2[nH]c3nc(N/N=C/c4cccc(O)c4)nnc3c2c1 | 1.12 µM [falling, full curve] | 1.12 µM [rising, full curve, poor fit]
58 | CC(=Nc1cccc(O)c1)c1sc2ccccc2c1O | 32.6 µM [rising, single point] | 
59 | O=C1c2cccnc2C(=O)N1c1cccc(-c2nc3ccccc3o2)c1 | 18.4 µM [falling, single point] | 
60 | COc1ccc(Cc2nc3ccccc3n2C)cc1 | 6.31 µM [falling, single point] | 
61 | C=CC[C@H](CC(=O)NCCO)C(=O)N[C@H](COC(=O)[C@@H](CC=C)Cc1ccc(F)cc1)Cc1ccccc1 | 20.6 µM [falling, single point] | 
62 | CNc1ccccc1C(=O)OCC(=O)c1ccccc1 | 20.6 µM [falling, partial curve] | 
